# Data reported in PubChem BioAssay AID493014 (National Center for Advancing Translational Sciences (NCATS), 2011).
# The whole screen tested about 340,000 compounds, of which about 170 (0.05%) were called active. The inconclusive results got no clear call from the source; some entries with a clear call stand among them for comparison. Calls come from the whole dose curve; as a rule, active = well fitted inhibition curve with a large enough effect in the signal ratio, with a control signal flat (not every such curve was filed as active); inconclusive = small, poorly fitted or top-dose-only effect, or effect the other way, or a change in a side signal; inactive = flat fitted curve, though single readings scatter; the % refers to the signal ratio. Potencies of inconclusive entries are doubtful fits and often do not repeat.
# Assay: qHTS Assay to Find Inhibitors of Chronic Active B-Cell Receptor Signaling;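 for activity change, negative = inhibition: plate controls were basal doxycycline-induced cells for no effect and cells given 10 µM MG132 for full effect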
# Details: ABC-DLBCL IkBa-CBG/CBR reporter, luminescence ratio (green luciferase fused to IkBa over red control in TMD8 lymphoma cells), 4 h; activity change, negative = inhibition: at 46.1 µM (top of the series)
# How it was run: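 TMD8 human ABC-DLBCL cells with doxycycline-inducible IκBα–green luciferase fusion and unfused red luciferase, in 0.5% FBS medium; compounds up to 46 uM, 4 h at 37C. Green/red luminescence ratio, filter-overlap corrected, fitted to concentration-response curves.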
# Potency is the fitted concentration of half-maximal effect.
Compound,"activity change, negative = inhibition",Potency
CCCOP(=O)(OCCC)c1nc(-c2ccccc2)oc1NCc1ccccc1,inconclusive: -18.3%,–
O=c1c2cc(Br)ccc2nc(-c2ccccc2)n1O,–,"inconclusive: 5.62 µM [rising, partial curve]"
CC(=O)Nc1ccc(Nc2nc3c(S(=O)(=O)c4ccc(C)c(C)c4)nnn3c3ccccc23)cc1,inconclusive: -1.73%,–
COc1ccc(N2C(=O)[C@@H]3[C@H](C2=O)[C@H](C(C)=O)N2c4ccccc4C=C[C@@H]32)cc1,–,"inconclusive: 1.58 µM [falling, full curve, poor fit]"
OCCN1CCN(CC(O)COc2ccc(C34CC5CC(CC(C5)C3)C4)cc2)CC1 (stereo not given),inconclusive: -23.9%,–
Cn1c(=O)n(C)c2cc(NS(=O)(=O)c3ccc(C(C)(C)C)cc3)ccc21,inconclusive: 2.72%,–
CC(C)C(=O)N(c1cc2sc(=O)oc2c2ccccc12)S(=O)(=O)c1cccs1,–,"inconclusive: 20.6 µM [falling, partial curve]"
COc1ccc(NC2=C(NC(C)=O)C(=O)c3ccccc3C2=O)cc1,inconclusive: 6.83%,–
O=C(OCc1ccccn1)c1ccc(COc2ccc3ccccc3c2)o1,–,"inconclusive: 22.4 µM [falling, partial curve]"
COc1ccc(-c2csc3ncnc(N4CCN(c5ccccc5Cl)CC4)c23)cc1,inactive: -0.179%,–
O=C(Oc1ccc(N(C(=O)c2ccncc2)S(=O)(=O)c2ccc(F)cc2)cc1)c1ccncc1,–,"inconclusive: 6.31 µM [falling, partial curve, poor fit]"
O=C(NC1CCCCCC1)c1c2c(nc3ccccc13)CCN(Cc1ccccc1)C2,inactive: -2.14%,–
Cc1nc(NC2CCCC2)sc1C(=O)N(C)C,inconclusive: -6.17%,–
Cc1ccc2nc(NCc3ccccc3)[nH]c2c1,–,"inconclusive: 25.1 µM [falling, single point]"
Clc1ccc(CN2C3=NCCCN3c3ccccc32)c(Cl)c1,inactive: 0.266%,–
O=C(CCCC(=O)Nc1ccccc1Br)N/N=C/c1c(F)cccc1Cl,inactive: 4.31%,–
Cc1ccc(S(=O)(=O)N(C)c2ccc(C(=O)N3CCCCC3)cc2)cc1,inconclusive: 25.1%,–
COc1ccc(-c2nonc2NC(=O)c2oc3ccccc3c2C)cc1OC,inconclusive: 11%,–
COc1ccc(S(=O)(=O)Cc2ccccc2)cc1N,inconclusive: 4.42%,–
CC(C)CCNC(=O)COc1ccc2c(c1)C(=O)CC(C)(C)O2,–,"inconclusive: 2.31 µM [falling, partial curve, poor fit]"
CCCCOc1c(Br)cc(CNCCCN2CCOCC2)cc1OC,inconclusive: -7.62%,–
O=C(O)c1ccccc1NC(=O)c1cc(-c2ccccc2)nc2ccccc12,inactive: 1.79%,–
CCN1C(=O)[C@H]2[C@@H](c3ccc(C)cc3)N3C(=O)N(c4ccccc4)C(=O)[C@@]3(C)[C@H]2C1=O,inactive: -0.249%,–
COc1cc(OC)c2c(c1)OC(=O)CC2c1ccc2c(c1)OCO2 (stereo not given),inconclusive: -0.793%,–
CCOc1ccc(NC(=O)C2CCCN(S(=O)(=O)c3cnc[nH]3)C2)cc1 (stereo not given),–,"inconclusive: 14.1 µM [falling, partial curve, poor fit]"
O=C(NN1C(=O)c2cc(Br)ccc2NC1c1ccccc1Cl)c1ccncc1 (stereo not given),inactive: -0.094%,–
Cc1[nH][nH]c(=O)c1C(c1ccc(-c2ccccc2C(=O)O)o1)c1c(C)[nH][nH]c1=O,inconclusive: 12.9%,–

Compound,"activity change, negative = inhibition",Potency
O=Cc1cn(-c2ccccc2)nc1-c1cc2c(ccc3ccccc32)oc1=O,inactive: 0.557%,–
Cc1ccc(Cn2c(C3CCCN3c3nc(C)cs3)nc3cc(C(F)(F)F)ccc32)cc1 (stereo not given),inactive: 19.2%,–
COc1cc(-c2cc(C(=O)O)c3cc4c(cc3n2)OCCO4)cc(OC)c1OC,–,"inconclusive: 32.6 µM [falling, partial curve, poor fit]"
Cc1ccc(S(=O)(=O)/C(C#N)=C/c2c(N3CC(C)OC(C)C3)nc3c(C)cccn3c2=O)cc1 (stereo not given),–,"inconclusive: 10.3 µM [rising, partial curve, poor fit]"
O=C(COc1cccc(Oc2ccccc2)c1)Nc1ccc(SC(F)F)cc1,–,"inconclusive: 23.1 µM [falling, single point]"
O=C(NCCCN1CCCC1=O)c1ccc2c(c1)ncn2C1CCCCC1,inconclusive: 1.36%,–
COc1ccc(Cn2c(-c3ccco3)nc3oc4cc(OC)ccc4c(=O)c3c2=O)cc1,inconclusive: 0.345%,–
O=C(Cc1ccc(-c2ccccc2)cc1)NCc1cccnc1,inactive: 0.521%,–
Cc1ccc(-c2nc(-c3ccncc3)no2)cc1Cl,inconclusive: 4.04%,–
CSc1c(-c2ccccn2)c(N)nn1C(=O)C1CC1,inconclusive: 1.15%,–
CN1CCN(C(=O)CN2C(=O)COc3ccc(S(=O)(=O)N4CCOCC4)cc32)CC1,inactive: 0.8%,–
COC(=O)CSc1nc(N2CCCCC2)c2c(c1C#N)CCCC2,inactive: 9.62%,–
COc1ccc2c(C)cc(SCC(=O)N3CCOCC3)nc2c1,inconclusive: 3.91%,–
O=C(Nc1nnc(Cc2ccc(Cl)cc2)s1)c1ccncc1,inconclusive: 6.21%,–
N#Cc1cn(Cc2ccccc2)c2ccccc12,inconclusive: -2.77%,–
CNC(=O)C1CCN(C(=O)c2ccc(-c3ccccc3)cc2)CC1,inconclusive: -0.0671%,–
COc1ccc(NC(=O)Nc2sc(=S)n(C)c2C)cc1,–,"inconclusive: 22.4 µM [falling, single point]"
COc1ccc(N2C(=O)c3ccccc3C2=O)cc1,inactive: -1.35%,–
Cc1cccc(C)c1NC(=O)COC(=O)CCc1ccc(S(=O)(=O)N2CCCCC2)cc1,–,"inconclusive: 18.4 µM [falling, partial curve]"
CCN(CC)S(=O)(=O)c1cccc(NC(=O)COC(=O)/C=C/c2cccs2)c1,inactive: -7.99%,–
CSc1nnc(NC(=O)c2ccc3c(c2)OCO3)s1,inconclusive: -3.83%,–
Cn1c(-c2ccco2)nc2cc3ccccc3cc21,–,"inconclusive: 17.8 µM [falling, single point]"
COc1ccc(-c2nc(CSCC(=O)NCCC3=CCCCC3)c(C)o2)cc1OC,inconclusive: -4.28%,–
O=C(O)c1ccccc1C(=O)NNc1ccc(Cl)cc1,inconclusive: 13%,–
CC(=O)NS(=O)(=O)c1ccc(NC(=O)c2cc(-c3ccc(C)c(C)c3)nc3ccccc23)cc1,inconclusive: 25.8%,–
N=C(N)c1ccc(/C=C/c2ccc(C(=N)N)cc2O)cc1,inactive: 4.11%,–
CC(=O)C1=C(C)NC(SCSc2ccccc2)=C(C#N)C1c1cccnc1 (stereo not given),inconclusive: -12.4%,–

Compound,"activity change, negative = inhibition",Potency
COc1ccc(C2NC(=O)NC3=C2CCc2ccccc23)cc1 (stereo not given),inconclusive: -0.589%,–
COc1ccc(-n2c(SCC(=O)C(C)(C)C)nc3c(sc(=S)n3-c3ccccc3)c2=O)c(OC)c1,inactive: 4.04%,–
Cc1cc(S(=O)(=O)N2CCN=C2c2ccccc2)ccc1F,inconclusive: 9.24%,–
COc1ccc(NC(=O)CCN2C(=O)c3ccccc3S2(=O)=O)c(OC)c1,inconclusive: 8.94%,–
O=C(N/N=C/c1ccc(Br)s1)c1ccccc1[N+](=O)[O-],–,"inconclusive: 11.2 µM [falling, partial curve]"
CCc1ccc(C(=O)CCC2CCCCC2=O)cc1 (stereo not given),–,"inconclusive: 0.731 µM [rising, full curve, poor fit]"
CC(=O)Nc1sc(N/N=C\c2ccc(O)cc2)nc1-c1cccs1,inconclusive: 8.71%,–
O=C(O)c1cccc(N/N=C/c2sc(N3CCOCC3)nc2-c2ccccc2)c1,–,"inconclusive: 6.51 µM [falling, single point]"
Cc1cc2occ(CC(=O)NCc3cccs3)c2cc1C(C)C,inactive: 0.178%,–
CN(CC1CCCCO1)C(=O)c1cc(COc2ccc(F)cc2Cl)on1 (stereo not given),inactive: 1.47%,–
CC(C)(C)c1cc(CN2CCN(CCC#N)CC2)cc(C(C)(C)C)c1O,inconclusive: 0.356%,–
CCOC(=O)c1c(NC(=O)CCl)sc(CN(C)C)c1-c1ccccc1,–,"inconclusive: 35.5 µM [falling, single point]"
COc1ccc(S(=O)(=O)N2CCOCC2)cc1NC(=O)c1ccncc1,inconclusive: -5.2%,–
CCc1sc(Nc2cccc(Cl)c2)nc1-c1cc2cccc(OC)c2oc1=O,–,"inconclusive: 12.6 µM [falling, partial curve, poor fit]"
O=C(Nc1ccc(Cl)cc1C(=O)Nc1ccncc1)c1ccco1,inconclusive: -9.92%,–
Cc1cc(CNC(=O)C(C)n2cc([N+](=O)[O-])cn2)c2ccccc2n1 (stereo not given),–,"inconclusive: 17.8 µM [falling, single point]"
O=C(/C=C/c1cccs1)NC1CCS(=O)(=O)C1 (stereo not given),–,"inconclusive: 4.47 µM [falling, partial curve, poor fit]"
O=C(NNC(=S)Nc1ccc(Br)cc1Cl)c1ccco1,–,"inconclusive: 29.1 µM [falling, single point]"
O=C(NCc1ccon1)C1CCC(=O)N(CCc2cccc(F)c2)C1 (stereo not given),inactive: -5.11%,–
O=C(Cc1cccs1)NCCS(=O)(=O)N1CCN(c2cccc(Cl)c2)CC1,inactive: 0.507%,–
COCC(C)n1c(SCC(=O)Nc2sccc2C(N)=O)nc2ccccc2c1=O (stereo not given),inconclusive: -4.04%,–
C=CCSc1nnc2c(n1)OC(c1ccco1)Nc1ccccc1-2 (stereo not given),inconclusive: -3.63%,–
Cc1nn(-c2ccccc2)c2c1C1(C(=O)Nc3ccccc31)N1C(=N2)Sc2ccccc21 (stereo not given),inactive: -3.41%,–
CNc1nnc(SCC(=O)c2cc(C)n(C3CC3)c2C)s1,inactive: 0.382%,–
CCOC(=O)Nc1ccc(C(=O)/C=C/c2ccccc2)cc1,inconclusive: -26.9%,–
O=C(Nc1ccc2nc3n(c(=O)c2c1)CCCCC3)c1ccccc1[N+](=O)[O-],inconclusive: -9.3%,–

# No new results follow: an excerpt of the list.
Compound,"activity change, negative = inhibition",Potency
CN(CC1CCCCO1)C(=O)c1cc(COc2ccc(F)cc2Cl)on1 (stereo not given),inactive: 1.47%,–
CC(C)(C)c1cc(CN2CCN(CCC#N)CC2)cc(C(C)(C)C)c1O,inconclusive: 0.356%,–
CCOC(=O)c1c(NC(=O)CCl)sc(CN(C)C)c1-c1ccccc1,–,"inconclusive: 35.5 µM [falling, single point]"
COc1ccc(S(=O)(=O)N2CCOCC2)cc1NC(=O)c1ccncc1,inconclusive: -5.2%,–
CCc1sc(Nc2cccc(Cl)c2)nc1-c1cc2cccc(OC)c2oc1=O,–,"inconclusive: 12.6 µM [falling, partial curve, poor fit]"
